Values quoted from earlier work as cited in US20050074814A1, “Relaxin3-GPCR135 complexes and their production and use” (priority 2003, published 2005).
For at least one compound, name, drawing or mass did not settle the structure.

Molecular target: T1, GPCR135 (Homo sapiens, UniProt Q9NSD7)
T1 sequence (Q9NSD7 1-469): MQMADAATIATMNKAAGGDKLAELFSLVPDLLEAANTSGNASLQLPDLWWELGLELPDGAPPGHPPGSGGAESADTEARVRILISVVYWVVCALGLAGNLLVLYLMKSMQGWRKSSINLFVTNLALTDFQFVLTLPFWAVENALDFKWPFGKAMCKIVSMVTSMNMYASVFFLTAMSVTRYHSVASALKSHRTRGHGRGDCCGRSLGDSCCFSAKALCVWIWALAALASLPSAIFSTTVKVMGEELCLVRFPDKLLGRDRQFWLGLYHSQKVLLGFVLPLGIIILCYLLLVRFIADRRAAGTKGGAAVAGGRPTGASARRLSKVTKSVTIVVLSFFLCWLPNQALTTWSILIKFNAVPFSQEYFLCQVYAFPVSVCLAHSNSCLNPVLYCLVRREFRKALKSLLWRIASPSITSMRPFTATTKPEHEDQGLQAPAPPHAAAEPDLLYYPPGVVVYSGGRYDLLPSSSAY
Parameters: host or cells: Cos-1 (transient)
Conditions: transient expression of GPCR135 in Cos-1 cells; cited from earlier work

## C[C@H](N)C(=O)NCC(=O)N[C@H]1CSSC[C@@H](C(=O)O)NC(=O)[C@H](CO)NC(=O)[C@H]([C@@H](C)O)NC(=O)[C@H](Cc2ccccc2)NC(=O)[C@H]([C@@H](C)O)NC(=O)[C@H](CCCCN)NC(=O)[C@H](Cc2c[nH]c3ccccc23)NC(=O)[C@H](Cc2ccccc2)NC(=O)[C@H](Cc2ccccc2)NC(=O)[C@H](CC(N)=O)NC(=O)[C@H](CCCCN)NC1=O [somatostatin]
  binding sites on GPCR135 expressing cells: did not produce any binding sites
